# Laboratory results as given in PubChem BioAssay AID588499 (NMMLSC, 2011).
# About 610 (0.17%) of roughly 360,000 compounds were called active. Inconclusive means that the source gave no clear call. Such entries were picked first, then a sample of the others. No stated cut-off is given here; in the data, active means inhibition above about 30%; inconclusive means no clear call, values can overlap the other calls; inactive means below that.
# Test system: Botulinum neurotoxin type A light chain protease (Clostridium botulinum A str. ATCC 3502)
# Experiment: blockers of BoNT/A LC substrate cleavage – biochemical, flow cytometry, MLPCN library, primary screen (AID 588499); further: plate controls were buffer without enzyme for full effect and enzyme alone for no effect
# Settings: multiplex microsphere protease substrate cleavage, at 10 µM, active compounds read high
row,Compound,inhibition
1,CC(=O)c1cccc(NC(=S)NC(=O)CC(C)C)c1,inconclusive: 9.1%
2,O=C(Cn1c(=O)[nH]c2ccsc2c1=O)NC1CCCCCC1,inconclusive: -2.2%
3,C=CCNC(=S)/N=c1/ccccn1C,inconclusive: 12.8%
4,O=C1OCC2=C1C(c1ccc(F)cc1)c1cc3c(cc1N2)OCO3 (stereo not given),inactive: -0.4%
5,COc1ccc2[nH]c(=O)c(CN(C(C)=O)c3cc(C)ccc3C)cc2c1,inactive: -0.2%
6,Cn1nc(NC(=O)C2CCC2C(=O)O)c2c(F)cccc21 (stereo not given),inconclusive: 10%
7,CCN(Cc1ccccc1)C(=O)Cn1cnc2c1c(=O)n(C)c(=O)n2C,inconclusive: -1.2%
8,COCCNCCCOc1ccc(Cl)cc1Br,inactive: 1%
9,CCCCNC(=O)c1cc(C)nc2ccccc12,inactive: 1.3%
10,NC(CCc1ccccc1)c1csc(Nc2nccc(C(F)(F)F)n2)n1 (stereo not given),inactive: -0.2%
11,Cc1cc(NC(=O)c2nn3cccnc3c2Cl)no1,inactive: -3.9%
12,COc1ccc(CC(=O)N2CCN(c3ccccc3)CC2)cc1OC,inconclusive: -1.8%
13,Cc1ccc2c(C)c(C(=O)N3CCCCC3CO)oc2c1C (stereo not given),inactive: -1.1%
14,O=C(NCCc1ccc(Cl)cc1)c1cnc2n(c1=O)CCS2,inactive: 0.2%
15,O=C(NCCOc1ccccc1F)c1ccccc1SCc1ccc(F)cc1,inactive: 1.1%
16,Cc1nccc(-c2cc(-c3ccc(Cl)cc3Cl)no2)n1,inconclusive: 0.1%
17,O=C(c1c(Cl)nc2sccn12)N1CCN(c2cccc(Cl)c2)CC1,inactive: 0.2%
18,CCCCn1c(SCC(=O)Nc2nnc(C)s2)nc2c1c(=O)n(C)c(=O)n2C,inconclusive: 2.8%
19,COc1ccccc1NC(=O)C(C)OC(=O)CCCc1c[nH]c2ccccc12 (stereo not given),inconclusive: 6.3%
20,Cc1cc(-c2ccccc2C(=O)NC2CCCCC2)on1,inconclusive: -74.4%

row,Compound,inhibition
1,Cc1ccc(S(=O)(=O)N2CCCN(c3nc4cc(C)ccc4cc3C#N)CC2)cc1,active: 39.6%
2,CCC(C)NC(=O)CSc1nc2ccccc2c(=O)n1CCCC(=O)NCC1CCCO1 (stereo not given),inconclusive: -1.2%
3,COc1ccc(NC(=O)C2CCCN(C(=O)NC3CCCCC3)C2)cc1OC (stereo not given),inconclusive: -3.2%
4,Cc1cc(NS(=O)(=O)c2ccc(NC(=O)C(C)Oc3ccccc3Cl)cc2)no1 (stereo not given),inconclusive: -0.5%
5,O=C1OCc2cc(NS(=O)(=O)c3cccs3)ccc21,inconclusive: 0.2%
6,CC(Oc1ccccc1)C(=O)Nc1cc(Cl)ccc1-n1cncn1 (stereo not given),inactive: -1.8%
7,CSc1cccc(NS(=O)(=O)c2cc(Br)cnc2N)c1,inactive: 1.1%
8,COCCCN(CCC#N)C(=O)c1c(-c2c(Cl)cccc2Cl)noc1C,inconclusive: 8.1%
9,COc1ccc2ccccc2c1CN1CCCC(CO)C1 (stereo not given),inconclusive: -1%
10,CN1c2cccc3cccc(c23)N(C)C1c1cccs1,inactive: -0.6%
11,Cc1ccc(C)c(-n2c(-c3ccc4c(c3)OCO4)n[nH]c2=S)c1,inconclusive: -1.5%
12,Clc1ccc(-n2nnnc2-c2ccccc2)cc1,inconclusive: -8.4%
13,Clc1ccc(Nc2ncnc3ccc(Br)cc23)cc1,inconclusive: -1.1%
14,O=C(NCC1CCCO1)c1nn2c(C(F)(F)F)cc(-c3cc(Br)cs3)nc2c1Br (stereo not given),inactive: 2.8%
15,CC(=O)Nc1cccc(NC(=O)CSc2nc(C)c(C)c(C)c2C#N)c1,inconclusive: 2.1%
16,O=C(Nc1nc(-c2ccc3c(c2)OCCO3)cs1)c1ccc(S(=O)(=O)N2CCCCC2)cc1,inconclusive: 0.7%
17,O=C(Nc1cccc2cccnc12)c1csc(COCCO)n1,inactive: 0.2%
18,Cc1ccccc1OC1C(=O)N(Cc2ccc3c(c2)OCO3)C1c1sccc1C (stereo not given),inconclusive: 4.6%
19,COc1ccccc1OCC(=O)Nc1ccncc1,inactive: 3.1%
20,CCOC(=O)c1ccc(S(=O)(=O)N2CCN(Cc3cc4c(cc3O)OCO4)CC2)cc1,inactive: -0.4%

row,Compound,inhibition
1,CS(=O)(=O)N(CC(=O)Nc1ccccc1Sc1ccccc1)C1CCCCC1,inconclusive: 0.1%
2,NC(=NC(=O)c1ccccc1)N1CCN(C(c2ccccc2)c2ccccc2)CC1,inconclusive: 1.6%
3,CCCC(=O)Nc1sc(-c2ccccc2)c(-c2ccccc2)c1C(=O)O,inconclusive: 12.5%
4,Cc1cc(C)n(C(C[N+](=O)[O-])c2ccc(Cl)cc2)n1 (stereo not given),inactive: -1.3%
5,CCOC(=O)c1c(NC(=O)CCc2ccc(CC)o2)sc(C)c1C,inconclusive: 11.4%
6,O=C(Nc1ccc(N2CCCCC2)cc1)c1ccc2c(c1)OCCO2,inconclusive: 0.3%
7,CCN(CC)c1ccc(/C=c2\sc3nnc(-c4ccccc4Cl)n3c2=O)cc1,active: 176%
8,Cc1nn(-c2cc(N3CCCCC3)ccc2[N+](=O)[O-])c(=O)c2ccccc12,inconclusive: -0.2%
9,CC(=O)Nc1cccc(NC(=S)Nc2cccc3ccccc23)c1,inactive: 1.2%
10,O=C(COC(=O)c1cncc(Br)c1)NC12CC3CC(CC(C3)C1)C2,active: 72.1%
11,CCOC(=O)C1=CCN(S(=O)(=O)c2ccc(C)cc2)[C@H]1c1ccccc1Cl,inactive: -0.8%
12,COC(=O)c1ccc(S(=O)(=O)NCCSc2nnc3c4ccccc4n(C)c3n2)cc1,inconclusive: 0.2%
13,COc1cc(/C=C2/N=C(c3ccccc3F)OC2=O)cc(Cl)c1OS(C)(=O)=O,inactive: -1.2%
14,CSCCC(N=Cc1c(O)n(-c2ccc(Br)cc2)c(=O)[nH]c1=O)C(=O)OC(C)(C)C (stereo not given),inconclusive: 1.7%
15,CC(NC(=O)c1ccco1)c1nc(-c2ccccc2Cl)no1 (stereo not given),inconclusive: -23.9%
16,CC(C)(C)c1cc(C(=O)NNC(=O)Nc2cccc(Cl)c2)n(Cc2ccccc2)n1,inconclusive: -27.4%
17,O=C(NNC(=S)NC(=O)c1ccco1)c1ccc(F)cc1,inconclusive: -0.6%
18,CCSc1nnc(-c2cccc(S(=O)(=O)N(CC)CC)c2)n1Cc1ccccc1,inconclusive: 2.3%
19,COc1ccc(CN(C)C(=O)CCN=C2NS(=O)(=O)c3ccccc32)c(OC)c1,inactive: -0.4%
20,O=C(N/C(=C/c1ccc(F)cc1)C(=O)N1CCOCC1)c1ccccc1,inconclusive: -148%

# Some of the entries so far, tab-delimited:
row	Compound	inhibition
16	CC(C)(C)c1cc(C(=O)NNC(=O)Nc2cccc(Cl)c2)n(Cc2ccccc2)n1	inconclusive: -27.4%
17	O=C(NNC(=S)NC(=O)c1ccco1)c1ccc(F)cc1	inconclusive: -0.6%
